Crude mass data for 2 substances are collected here from patent publication US12178842B2 (MERCK SHARP & DOHME LLC, priority 2019, dated 2024).

This data set in a line: general procedure: Fmoc solid-phase peptide synthesis; PS Rink-Amide MBHA; HATU/DIPEA (Reagent A); DIC/Oxyma (Reagent B). Particulars: whole synthesis, scale 0.250 mmol.

The substance Int-A (Reagent B) gave a crude mass of 300 mg.

Int-A (Reagent A) had a crude mass of 399 mg.
